No constants are given. Whether binding was seen depends on the method and setting.

The target of this assay is periplasmic chaperone SurA of P. aeruginosa (P. aeruginosa PAO1) (UniProt Q9I5U3). The assay is described as follows: SEC-MALS; isolated chaperones at 2 mg/ml, Superdex 200 Increase 10/300 GL; FkpA, SurA and PpiD in 50 mM KCl, 5 mM MgCl2, 20 mM HEPES-KOH pH 7.4; YfgM in 5 mM glycine, 20 mM NaCl, 5 mM Tris-HCl pH 8.5; Skp in 100 mM NaCl, 20 mM Tris-HCl pH 8.0; LipH in 100 mM NaCl, 200 µM TCEP, 50 mM Tris-HCl pH 8.0; both purified.

B1: periplasmic chaperone SurA of P. aeruginosa (protein, UniProt Q9I5U3 13-417)
chain: EVVPLDRVVAIVDNDVIMQSQLDQRLREVHQTLLKRGAPLPPEHVLTQQVLERLIIENIQQQIGDRSGIRISDEELNQAMGTIAQRNGMSLEQFQTALTRDGLSYADAREQVRREMVISRVRQRRVAERIQVSEQEVKNFLASDMGKIQLSEEYRLANILIPVPEAASSDVIQAAARQAQELYQQLKQGADFGQLAISRSAGDNALEGGEIGWRKAAQLPQPFDSMIGSLAVGDVTEPVRTPGGFIILKLEEKRGGSKMVRDEVHVRHILLKPSEIRSEAETEKLAQKLYERIQSGEDFGELAKSFSEDPGSALNGGDLNWIDPEALVPEFRQVMNDTPQGELSKPFRSQFGWHILQVLGRRATDSSEKFREQQAVSVLRNRKYDEELQAWLRQIRDEAYVEIKQ
Regarding B1, the binding result was “no binding (tested: 2 mg/ml)”.

These data come from article PMC9638971.
